PubChem BioAssay AID1159593 | NIAID | 2016
Purpose: 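Knock-downs that alter LPS-induced nuclear entry of p65 in mouse macrophages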. Cells: RAW264.7 macrophages of mouse, with reporters for p65 (GFP) and the Tnf promoter (mCherry). Reagent: single siRNA against mouse genes. Timing: 48 to 72 hours after siRNA transfection, then LPS for 40 min. Treatment: LPS (Salmonella minnesota R595) for 40 min before fixation; dose not given. Measurement: 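Imaged nuclear over cytoplasmic GFP-p65 intensity after 40 min LPS, normalised per plate by median and MAD, robust z-score versus negative controls, mean of replicates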. Reading the numbers: p65 translocation z-score: higher = more nuclear NF-kappaB p65 after LPS. Hit rule: 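Activity score grows with absolute z: 25 beyond 1, 50 beyond 1.5, 75 beyond 2, 100 beyond 2.5; active calls here sit at about z 1.5 or more either way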. Calls: active = changed p65 translocation (either direction); inactive = no clear change.
The deposit covers 756 reagents; this is a random part of them. In the full data, 137 (18%) got an active call. 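Active means p65 translocation went either up or down; genes were judged on the median of six siRNAs, not single siRNAs.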 Entries without a mark were called inactive. Reagents against one gene are numbered here. The record does not give: the amount of reagent.

p65 translocation z-score, by gene and reagent
Tbk1: #1 -0.0634; #2 -0.0134; #3 -0.169; #4 0.294; #5 -1.64 (active); #6 1.4
Myd88: #1 -0.028; #2 -2.17 (active); #3 -0.498; #4 -1.72 (active); #5 -1.16; #6 -1.15
Lbp: #1 -0.202; #2 -1.83 (active); #3 0.978; #4 -0.754; #5 1.03; #6 -0.286
Dab2ip: #1 -0.412; #2 0.937; #3 -1.22; #4 2.5 (active); #5 -0.345; #6 -0.245
Ifnar1: #1 -1.43; #2 0.417; #3 -1.36; #4 1.14; #5 -0.0953; #6 -0.842
Tlr6: #1 0.31; #2 0.0936; #3 -1.12; #4 0.263; #5 0.418; #6 -0.138
Mapk1: #1 -0.325; #2 -0.922; #3 -0.519; #4 0.877; #5 0.639; #6 3.89 (active)
Tlr5: #1 -0.596; #2 0.451; #3 0.429; #4 -0.965; #5 1.17; #6 0.358
Ifnb1: #1 1.19; #2 0.122; #3 -1.51 (active); #4 -0.227; #5 -0.62; #6 -0.545
Irak3: #1 -1.51 (active); #2 -1.12; #3 -0.371; #4 -0.306; #5 -0.475; #6 -1.83 (active)
Irak2: #1 -2.03 (active); #2 -0.959; #3 -2.22 (active); #4 -1.09; #5 -1.13; #6 -0.45
Ripk1: #1 -1.51 (active); #2 0.13; #3 0.676; #4 -1.4; #5 0.673; #6 1.47

As entered above:
Result for Ripk1 #2 under “p65 translocation z-score”: 0.13
For “p65 translocation z-score”, Ripk1 #6 shows 1.47
Entry of Myd88 #1 under “p65 translocation z-score”: -0.028
Ifnar1 #3, p65 translocation z-score → -1.36
Irak2 #3, p65 translocation z-score → -2.22 (active)
Result for Dab2ip #5 in “p65 translocation z-score”: -0.345

The listing continues.
p65 translocation z-score, by gene and reagent
Jun: #1 -0.392; #2 -2.73 (active); #3 -0.525; #4 -2.04 (active); #5 -1.75 (active); #6 -0.199
Cyld: #1 0.654; #2 -0.878; #3 0.273; #4 -0.352; #5 -0.577; #6 -0.134
Map3k1: #1 0.656; #2 -1.29; #3 0.745; #4 -0.43; #5 2.83 (active); #6 -0.45
Tlr8: #1 -0.126; #2 0.649; #3 -0.497; #4 0.17; #5 -2.29 (active); #6 0.021
Il1b: #1 0.425; #2 -0.342; #3 0.161; #4 1.82 (active); #5 -0.385; #6 -0.573
Irf9: #1 -0.585; #2 -1.4; #3 0.624; #4 -0.21; #5 0.0307; #6 -1.91 (active)
Mapk10: #1 1.25; #2 0.189; #3 -0.911; #4 -0.645; #5 -0.663; #6 -1.16
Cd14: #1 -2.24 (active); #2 -2.38 (active); #3 -1.82 (active); #4 -1.32; #5 -1.62 (active); #6 -0.484
Ep300: #1 -2.52 (active); #2 -1.31; #3 -0.8; #4 -1.1; #5 -1.23; #6 -1.34
Ikbkb: #1 0.867; #2 -1.12; #3 -1.64 (active); #4 -0.935; #5 0.146; #6 -0.136
Cxcl11: #1 -0.439; #2 0.688; #3 -0.00587; #4 -1.58 (active); #5 -1.08; #6 -0.213
Casp8: #1 0.864; #2 -1.22; #3 -0.908; #4 0.32; #5 -3.43 (active); #6 -0.774
